Laboratory results published in the supplement of paper PMC10849652.
The list shows a part of the results.

Chains of the proteins cited; added tags and fusions are not shown. Lines headed by an entry give the natural chain unless they say otherwise; changes in a name come on top.
UniProt Q8TDH9: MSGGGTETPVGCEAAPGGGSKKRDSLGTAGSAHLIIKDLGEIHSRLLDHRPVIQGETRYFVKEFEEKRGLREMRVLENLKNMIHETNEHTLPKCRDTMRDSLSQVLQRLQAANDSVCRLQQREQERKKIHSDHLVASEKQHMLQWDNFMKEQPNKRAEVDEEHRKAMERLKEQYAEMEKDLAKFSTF
UniProt Q8TDN6: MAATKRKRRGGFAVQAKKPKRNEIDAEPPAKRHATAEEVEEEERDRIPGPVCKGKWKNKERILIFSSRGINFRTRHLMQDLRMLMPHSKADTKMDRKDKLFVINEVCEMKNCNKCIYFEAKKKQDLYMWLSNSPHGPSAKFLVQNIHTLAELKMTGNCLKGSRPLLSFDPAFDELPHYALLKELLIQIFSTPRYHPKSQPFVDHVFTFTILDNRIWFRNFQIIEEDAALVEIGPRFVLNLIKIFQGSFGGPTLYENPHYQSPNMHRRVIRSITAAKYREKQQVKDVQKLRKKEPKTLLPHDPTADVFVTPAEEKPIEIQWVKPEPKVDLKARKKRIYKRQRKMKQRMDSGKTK
UniProt Q9UBB4: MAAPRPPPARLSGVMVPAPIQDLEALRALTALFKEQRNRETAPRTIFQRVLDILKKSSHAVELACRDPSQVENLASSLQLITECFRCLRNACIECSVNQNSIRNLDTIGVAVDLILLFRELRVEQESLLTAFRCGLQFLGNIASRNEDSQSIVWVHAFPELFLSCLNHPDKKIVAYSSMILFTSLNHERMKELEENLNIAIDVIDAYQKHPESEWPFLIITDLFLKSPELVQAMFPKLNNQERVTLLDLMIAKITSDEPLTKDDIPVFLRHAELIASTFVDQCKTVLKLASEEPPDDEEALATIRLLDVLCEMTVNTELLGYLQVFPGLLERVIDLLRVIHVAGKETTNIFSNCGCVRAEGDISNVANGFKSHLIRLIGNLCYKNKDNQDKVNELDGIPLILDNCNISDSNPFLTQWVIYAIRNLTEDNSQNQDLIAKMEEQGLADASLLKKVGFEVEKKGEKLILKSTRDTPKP
UniProt Q6PJG6: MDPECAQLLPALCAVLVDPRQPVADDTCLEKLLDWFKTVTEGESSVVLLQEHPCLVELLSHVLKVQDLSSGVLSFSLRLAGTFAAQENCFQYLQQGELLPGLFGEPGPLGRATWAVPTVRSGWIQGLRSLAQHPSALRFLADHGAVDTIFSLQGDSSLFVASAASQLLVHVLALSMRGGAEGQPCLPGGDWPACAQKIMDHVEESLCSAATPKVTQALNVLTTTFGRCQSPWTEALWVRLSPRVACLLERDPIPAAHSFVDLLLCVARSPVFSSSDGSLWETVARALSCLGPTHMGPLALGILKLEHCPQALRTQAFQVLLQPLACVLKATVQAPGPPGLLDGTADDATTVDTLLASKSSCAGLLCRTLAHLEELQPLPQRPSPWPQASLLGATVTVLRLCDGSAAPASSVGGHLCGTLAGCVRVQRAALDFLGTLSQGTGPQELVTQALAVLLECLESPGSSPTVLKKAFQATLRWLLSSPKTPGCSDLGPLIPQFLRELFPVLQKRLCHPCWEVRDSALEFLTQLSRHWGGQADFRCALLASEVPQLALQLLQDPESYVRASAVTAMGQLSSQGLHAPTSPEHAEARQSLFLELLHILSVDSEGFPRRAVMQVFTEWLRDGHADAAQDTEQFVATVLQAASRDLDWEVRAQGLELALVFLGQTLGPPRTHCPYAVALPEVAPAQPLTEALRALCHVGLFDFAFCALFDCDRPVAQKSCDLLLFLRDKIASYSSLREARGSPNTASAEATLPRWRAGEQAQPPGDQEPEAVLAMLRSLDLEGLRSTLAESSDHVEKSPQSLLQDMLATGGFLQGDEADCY
UniProt Q9H7T9: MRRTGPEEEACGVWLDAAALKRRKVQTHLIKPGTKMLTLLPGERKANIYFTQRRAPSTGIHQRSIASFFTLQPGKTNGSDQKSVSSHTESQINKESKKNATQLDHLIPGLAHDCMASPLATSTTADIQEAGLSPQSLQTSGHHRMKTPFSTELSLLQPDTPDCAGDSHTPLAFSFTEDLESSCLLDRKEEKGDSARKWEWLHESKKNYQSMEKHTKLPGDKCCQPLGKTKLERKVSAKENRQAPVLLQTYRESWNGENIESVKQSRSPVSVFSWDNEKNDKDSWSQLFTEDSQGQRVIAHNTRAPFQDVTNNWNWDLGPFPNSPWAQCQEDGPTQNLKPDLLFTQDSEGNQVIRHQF
UniProt Q9BUT1: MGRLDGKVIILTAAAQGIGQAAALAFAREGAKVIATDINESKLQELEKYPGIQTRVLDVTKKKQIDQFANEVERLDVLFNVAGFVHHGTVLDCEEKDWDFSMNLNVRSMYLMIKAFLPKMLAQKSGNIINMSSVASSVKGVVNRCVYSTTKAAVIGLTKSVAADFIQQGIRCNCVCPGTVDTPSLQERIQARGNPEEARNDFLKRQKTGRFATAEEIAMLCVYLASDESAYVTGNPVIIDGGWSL
UniProt O15169, whole entry, looked up: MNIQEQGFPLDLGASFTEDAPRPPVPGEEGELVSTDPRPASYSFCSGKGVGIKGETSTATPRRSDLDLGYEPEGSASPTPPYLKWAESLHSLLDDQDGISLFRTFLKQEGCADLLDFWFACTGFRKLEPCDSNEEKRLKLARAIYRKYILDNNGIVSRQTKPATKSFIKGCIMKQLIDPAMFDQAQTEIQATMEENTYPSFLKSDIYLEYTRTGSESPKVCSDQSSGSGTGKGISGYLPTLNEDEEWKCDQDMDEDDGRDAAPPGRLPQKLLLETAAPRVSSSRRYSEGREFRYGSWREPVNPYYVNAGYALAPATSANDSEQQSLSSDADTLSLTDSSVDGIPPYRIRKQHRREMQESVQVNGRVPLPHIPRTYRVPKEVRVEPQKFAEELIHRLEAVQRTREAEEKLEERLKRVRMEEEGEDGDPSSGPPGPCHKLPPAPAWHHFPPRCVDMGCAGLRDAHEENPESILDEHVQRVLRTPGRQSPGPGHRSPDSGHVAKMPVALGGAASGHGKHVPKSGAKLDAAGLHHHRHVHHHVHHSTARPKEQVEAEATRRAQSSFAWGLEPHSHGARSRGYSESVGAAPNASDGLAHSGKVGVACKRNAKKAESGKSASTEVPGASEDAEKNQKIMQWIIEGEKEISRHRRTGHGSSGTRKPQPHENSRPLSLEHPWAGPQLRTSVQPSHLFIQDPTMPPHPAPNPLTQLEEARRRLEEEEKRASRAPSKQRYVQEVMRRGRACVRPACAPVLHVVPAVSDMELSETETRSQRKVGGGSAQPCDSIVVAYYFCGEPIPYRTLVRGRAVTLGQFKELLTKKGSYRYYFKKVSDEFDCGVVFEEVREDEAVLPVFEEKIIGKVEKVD

Tests used:
Assay in all cases: log2 fold change, soluble protein after heating vs DMSO (PISA); higher = thermal stabilisation; K562 cells, 10 uM, 30 min; active = over 0.2 and 3.5 SD of the protein, either way, in both replicates (recomputed)
[1] = compound: C1=CC=C(C=C1)[C@H](COC2=CC3=C(C=C2)NC(=O)N3)NC(=O)C4=CC=CN(C4=O)CC5=CC(=C(C=C5)F)F
Summary of the method: (§1)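 K562 cells at 2×10^6 cells/mL were treated for 30 min with 10 μM compound, and aliquots were heated for 3 min over 48°C-58°C before pooling. Extraction used PBS with 0.5% NP-40 at 4°C, and soluble protein was the supernatant after 21,000xg for 90 min, measured by TMTpro 16plex LC-MS/MS with channel sums equalised. Thermal stability values, relative to control samples and from duplicates, are log2 fold changes.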

[2] = compound: CC1=C(SC2=C1C(=N[C@H](C3=NN=C(N32)C)CC(=O)N)C4=CC=C(C=C4)Cl)C
Summary of the method: as §1

[3] = compound: CC1=C2C(=CC=C1)N=C(N(C2=O)C3=CC=CC=C3C)CN4C=NC5=C(N=CN=C54)N
Summary of the method: as §1

[4] = compound: Cc1sc2c(c1C)C(c1ccc(Cl)cc1)=N[C@@H](CC(=O)OC(C)(C)C)c1nnc(C)n1-2
Summary of the method: as §1

[5] = compound: c1ccc([C@@H]2C[C@H]2NC2CCNCC2)cc1
Summary of the method: as §1

Measured: log2 fold change

BLOC1S5 (UniProt Q8TDH9)
inactive: [1] -0.037 | [2] 0.024 | [3] 0.148 | [4] -0.048 | [5] 0.014

BRIX1 (UniProt Q8TDN6)
inactive: [1] 0.093 | [2] -0.349 | [3] -0.242 | [4] 0.244 | [5] -0.007

ATXN10 (UniProt Q9UBB4)
inactive: [1] -0.037 | [2] 0.037 | [3] 0.009 | [4] -0.011 | [5] -0.025

BRAT1 (UniProt Q6PJG6)
inactive: [1] -0.017 | [2] 0.03 | [3] 0.059 | [4] -0.053 | [5] -0.075

AUNIP isoform 2 (UniProt Q9H7T9)
inactive: [2] 0.031 | [3] 0.086 | [4] -0.001 | [5] -0.014

BDH2 (UniProt Q9BUT1)
inactive: [1] -0.033 | [2] 0.087 | [3] -0.213 | [5] 0.12

BLVRA (UniProt C9J1E1)
inactive: [1] -0.04 | [2] -0.013 | [3] 0.078 | [5] 0.26

AXIN1 (UniProt O15169)
inactive: [3] 0.212
